In assay [1] the target is T1, PCFS4 (yeast two-hybrid fusion; bridge protein of the three-hybrid) (Arabidopsis thaliana) (UniProt Q0WPF2).
T1 sequence: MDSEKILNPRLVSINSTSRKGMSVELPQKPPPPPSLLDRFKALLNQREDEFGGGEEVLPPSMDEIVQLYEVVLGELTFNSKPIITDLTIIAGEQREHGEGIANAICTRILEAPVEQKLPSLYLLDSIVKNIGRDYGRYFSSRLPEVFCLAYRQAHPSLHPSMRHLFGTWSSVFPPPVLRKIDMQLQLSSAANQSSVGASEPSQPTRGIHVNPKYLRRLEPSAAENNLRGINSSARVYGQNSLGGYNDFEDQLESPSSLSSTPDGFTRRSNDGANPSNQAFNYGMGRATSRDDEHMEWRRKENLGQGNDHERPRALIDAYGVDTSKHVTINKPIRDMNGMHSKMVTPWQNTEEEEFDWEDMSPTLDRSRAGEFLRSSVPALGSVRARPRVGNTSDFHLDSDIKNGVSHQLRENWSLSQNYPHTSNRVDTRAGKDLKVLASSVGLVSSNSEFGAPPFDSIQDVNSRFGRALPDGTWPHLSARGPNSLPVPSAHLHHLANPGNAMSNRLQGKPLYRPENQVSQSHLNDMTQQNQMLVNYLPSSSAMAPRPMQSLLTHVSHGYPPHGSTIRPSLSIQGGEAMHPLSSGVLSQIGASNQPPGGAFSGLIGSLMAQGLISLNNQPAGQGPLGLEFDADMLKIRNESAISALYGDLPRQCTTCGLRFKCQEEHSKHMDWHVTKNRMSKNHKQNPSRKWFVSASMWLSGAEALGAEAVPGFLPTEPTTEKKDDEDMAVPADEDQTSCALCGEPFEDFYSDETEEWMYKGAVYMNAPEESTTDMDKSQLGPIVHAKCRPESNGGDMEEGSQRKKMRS
Nature of the assay: two-hybrid; pGADT7 (AD) and pGBKT7 (BD) plasmids co-transformed into yeast AH109; growth on SD/-Leu/-Trp/-His/-Ade.

Assay [2] deals with T2, full-length PCFS4 tagged with GFP or RFP (N. benthamiana) (Arabidopsis thaliana) (UniProt Q0WPF2).
T2 sequence: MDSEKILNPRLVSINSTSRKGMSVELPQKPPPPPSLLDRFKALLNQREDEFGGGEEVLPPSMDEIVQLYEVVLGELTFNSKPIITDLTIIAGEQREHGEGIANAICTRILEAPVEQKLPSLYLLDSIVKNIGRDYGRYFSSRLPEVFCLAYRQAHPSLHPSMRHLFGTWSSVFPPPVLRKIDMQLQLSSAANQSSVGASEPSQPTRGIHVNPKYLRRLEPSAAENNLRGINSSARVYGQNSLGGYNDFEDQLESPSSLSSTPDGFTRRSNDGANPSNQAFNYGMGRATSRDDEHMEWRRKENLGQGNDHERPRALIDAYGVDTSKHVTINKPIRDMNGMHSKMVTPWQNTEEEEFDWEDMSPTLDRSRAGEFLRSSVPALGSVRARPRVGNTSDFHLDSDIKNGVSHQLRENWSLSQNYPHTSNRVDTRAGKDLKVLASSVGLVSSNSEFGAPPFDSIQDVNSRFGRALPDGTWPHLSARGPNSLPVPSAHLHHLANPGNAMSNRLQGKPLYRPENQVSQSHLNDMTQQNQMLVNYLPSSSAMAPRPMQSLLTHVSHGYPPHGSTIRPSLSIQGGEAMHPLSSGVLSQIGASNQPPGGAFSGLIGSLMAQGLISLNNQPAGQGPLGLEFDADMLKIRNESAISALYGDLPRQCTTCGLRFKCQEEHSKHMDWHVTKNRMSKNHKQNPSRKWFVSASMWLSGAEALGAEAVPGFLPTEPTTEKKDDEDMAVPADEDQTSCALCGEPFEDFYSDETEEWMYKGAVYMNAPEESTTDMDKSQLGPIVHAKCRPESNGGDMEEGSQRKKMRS
Briefly: FRET or BRET; acceptor photobleaching FRET of two co-expressed GFP- (donor) and RFP- (acceptor) tagged proteins in N. benthamiana leaf cells, 48 h after infiltration; at least 8 cells. Background: In BRET a luciferase serves as donor, and the signal depends on an acceptor being close.

In assay [3] the target is T3, FPA with a FLAG tag (Arabidopsis protoplasts) (Arabidopsis thaliana) (UniProt Q8LPQ9).
T3 sequence: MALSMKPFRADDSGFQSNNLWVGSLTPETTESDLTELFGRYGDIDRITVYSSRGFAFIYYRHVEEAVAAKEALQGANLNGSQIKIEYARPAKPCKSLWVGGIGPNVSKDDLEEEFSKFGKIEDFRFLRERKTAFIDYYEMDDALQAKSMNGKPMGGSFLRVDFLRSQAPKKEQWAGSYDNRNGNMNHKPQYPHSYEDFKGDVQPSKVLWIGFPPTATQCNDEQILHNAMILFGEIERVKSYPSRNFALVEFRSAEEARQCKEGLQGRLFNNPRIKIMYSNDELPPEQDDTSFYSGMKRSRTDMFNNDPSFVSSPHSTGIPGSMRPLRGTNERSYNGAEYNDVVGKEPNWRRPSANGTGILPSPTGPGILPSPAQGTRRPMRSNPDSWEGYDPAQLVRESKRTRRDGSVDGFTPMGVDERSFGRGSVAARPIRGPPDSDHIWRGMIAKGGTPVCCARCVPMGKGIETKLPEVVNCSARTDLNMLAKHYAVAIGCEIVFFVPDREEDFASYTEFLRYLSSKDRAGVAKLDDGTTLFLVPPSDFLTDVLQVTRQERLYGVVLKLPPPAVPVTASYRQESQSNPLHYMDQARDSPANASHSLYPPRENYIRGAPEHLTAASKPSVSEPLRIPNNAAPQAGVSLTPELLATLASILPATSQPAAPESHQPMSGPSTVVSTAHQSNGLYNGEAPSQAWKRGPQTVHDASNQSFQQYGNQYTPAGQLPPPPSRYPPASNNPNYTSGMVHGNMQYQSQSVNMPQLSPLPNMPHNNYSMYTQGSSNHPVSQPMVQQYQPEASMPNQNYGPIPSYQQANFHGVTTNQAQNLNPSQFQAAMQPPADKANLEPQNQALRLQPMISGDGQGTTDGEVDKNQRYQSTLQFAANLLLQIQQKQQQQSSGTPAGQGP
Briefly: co-IP; Arabidopsis protoplasts co-transformed with FLAG-tagged FPA and a MYC-tagged protein; lysate (150 mM NaCl, 0.2% Triton X-100, pH 7.4) on anti-FLAG M2 magnetic beads, 2 h at 4 °C; blots with anti-FLAG and anti-MYC.

These are yes or no findings as the source states them, for the method shown. For some assays here: In cells and extracts the contact can be indirect. Some binding calls cover weakened binding; strength is not graded here. Sequences can lack the tags named with a protein.

B1: FPA (yeast two-hybrid and three-hybrid fusion) (protein, UniProt Q8LPQ9 1-901)
chain: MALSMKPFRADDSGFQSNNLWVGSLTPETTESDLTELFGRYGDIDRITVYSSRGFAFIYYRHVEEAVAAKEALQGANLNGSQIKIEYARPAKPCKSLWVGGIGPNVSKDDLEEEFSKFGKIEDFRFLRERKTAFIDYYEMDDALQAKSMNGKPMGGSFLRVDFLRSQAPKKEQWAGSYDNRNGNMNHKPQYPHSYEDFKGDVQPSKVLWIGFPPTATQCNDEQILHNAMILFGEIERVKSYPSRNFALVEFRSAEEARQCKEGLQGRLFNNPRIKIMYSNDELPPEQDDTSFYSGMKRSRTDMFNNDPSFVSSPHSTGIPGSMRPLRGTNERSYNGAEYNDVVGKEPNWRRPSANGTGILPSPTGPGILPSPAQGTRRPMRSNPDSWEGYDPAQLVRESKRTRRDGSVDGFTPMGVDERSFGRGSVAARPIRGPPDSDHIWRGMIAKGGTPVCCARCVPMGKGIETKLPEVVNCSARTDLNMLAKHYAVAIGCEIVFFVPDREEDFASYTEFLRYLSSKDRAGVAKLDDGTTLFLVPPSDFLTDVLQVTRQERLYGVVLKLPPPAVPVTASYRQESQSNPLHYMDQARDSPANASHSLYPPRENYIRGAPEHLTAASKPSVSEPLRIPNNAAPQAGVSLTPELLATLASILPATSQPAAPESHQPMSGPSTVVSTAHQSNGLYNGEAPSQAWKRGPQTVHDASNQSFQQYGNQYTPAGQLPPPPSRYPPASNNPNYTSGMVHGNMQYQSQSVNMPQLSPLPNMPHNNYSMYTQGSSNHPVSQPMVQQYQPEASMPNQNYGPIPSYQQANFHGVTTNQAQNLNPSQFQAAMQPPADKANLEPQNQALRLQPMISGDGQGTTDGEVDKNQRYQSTLQFAANLLLQIQQKQQQQSSGTPAGQGP
Take B1: the binding result in assay [1] was “binds”.

B2: full-length FPA tagged with GFP or RFP (N. benthamiana) (protein, UniProt Q8LPQ9 1-901)
chain: MALSMKPFRADDSGFQSNNLWVGSLTPETTESDLTELFGRYGDIDRITVYSSRGFAFIYYRHVEEAVAAKEALQGANLNGSQIKIEYARPAKPCKSLWVGGIGPNVSKDDLEEEFSKFGKIEDFRFLRERKTAFIDYYEMDDALQAKSMNGKPMGGSFLRVDFLRSQAPKKEQWAGSYDNRNGNMNHKPQYPHSYEDFKGDVQPSKVLWIGFPPTATQCNDEQILHNAMILFGEIERVKSYPSRNFALVEFRSAEEARQCKEGLQGRLFNNPRIKIMYSNDELPPEQDDTSFYSGMKRSRTDMFNNDPSFVSSPHSTGIPGSMRPLRGTNERSYNGAEYNDVVGKEPNWRRPSANGTGILPSPTGPGILPSPAQGTRRPMRSNPDSWEGYDPAQLVRESKRTRRDGSVDGFTPMGVDERSFGRGSVAARPIRGPPDSDHIWRGMIAKGGTPVCCARCVPMGKGIETKLPEVVNCSARTDLNMLAKHYAVAIGCEIVFFVPDREEDFASYTEFLRYLSSKDRAGVAKLDDGTTLFLVPPSDFLTDVLQVTRQERLYGVVLKLPPPAVPVTASYRQESQSNPLHYMDQARDSPANASHSLYPPRENYIRGAPEHLTAASKPSVSEPLRIPNNAAPQAGVSLTPELLATLASILPATSQPAAPESHQPMSGPSTVVSTAHQSNGLYNGEAPSQAWKRGPQTVHDASNQSFQQYGNQYTPAGQLPPPPSRYPPASNNPNYTSGMVHGNMQYQSQSVNMPQLSPLPNMPHNNYSMYTQGSSNHPVSQPMVQQYQPEASMPNQNYGPIPSYQQANFHGVTTNQAQNLNPSQFQAAMQPPADKANLEPQNQALRLQPMISGDGQGTTDGEVDKNQRYQSTLQFAANLLLQIQQKQQQQSSGTPAGQGP
B2: in assay [2], the binding entry is “binds”.

B3: CLPS3 (yeast two-hybrid and three-hybrid fusion) (protein, UniProt Q9SR06 1-444)
chain: MAYGGPSMNPPALSGAVPGSANLKQVKLERESELRIEVSEEPLRLRVVNGTAEIFGSELPPEIWRTFPPRMKFAVFTWYGATIEMDGVTETDYTADETPMVSYINVHAILDARRRFAKASTSNDPESSQGPRVIVVGPTDSGKSTLTKMLLSWAAKQGWRPTFVDLDVGQGSITIPGSIAAAPIEMPLDPVEGFPLDMALVYYYGHASPNMNVELYKALVKELAQVLEKQFVGNPESRAAGMVINTMGWIEGIGYELLLHAIDTFNASVVLVLGQEKLFSRLKDVLRSKSNVDVVKLHKSGGVVARVKEVRKRSRNFKIQEYFYGLSKELSPYANTSSFSDLQVFRIGGGPQAPKSALPAGSTSVSNPLRVTPVNIDDRDLLHSVLAVSYAEEPDQIISSNVSGFVYVTEVNVQKKKITYLAPSPGTLPSKLLVAGSLAWLESV
Regarding B3, the binding entry in assay [1] is reported as “binds”.

B4: CLPS3 tagged with GFP or RFP (N. benthamiana) (protein, UniProt Q9SR06 1-444)
chain: MAYGGPSMNPPALSGAVPGSANLKQVKLERESELRIEVSEEPLRLRVVNGTAEIFGSELPPEIWRTFPPRMKFAVFTWYGATIEMDGVTETDYTADETPMVSYINVHAILDARRRFAKASTSNDPESSQGPRVIVVGPTDSGKSTLTKMLLSWAAKQGWRPTFVDLDVGQGSITIPGSIAAAPIEMPLDPVEGFPLDMALVYYYGHASPNMNVELYKALVKELAQVLEKQFVGNPESRAAGMVINTMGWIEGIGYELLLHAIDTFNASVVLVLGQEKLFSRLKDVLRSKSNVDVVKLHKSGGVVARVKEVRKRSRNFKIQEYFYGLSKELSPYANTSSFSDLQVFRIGGGPQAPKSALPAGSTSVSNPLRVTPVNIDDRDLLHSVLAVSYAEEPDQIISSNVSGFVYVTEVNVQKKKITYLAPSPGTLPSKLLVAGSLAWLESV
Take B4: the binding entry in assay [2] was “binds”.

B5: PCFS4 with MYC tag (Arabidopsis protoplasts) (protein, UniProt Q0WPF2 1-808)
chain: MDSEKILNPRLVSINSTSRKGMSVELPQKPPPPPSLLDRFKALLNQREDEFGGGEEVLPPSMDEIVQLYEVVLGELTFNSKPIITDLTIIAGEQREHGEGIANAICTRILEAPVEQKLPSLYLLDSIVKNIGRDYGRYFSSRLPEVFCLAYRQAHPSLHPSMRHLFGTWSSVFPPPVLRKIDMQLQLSSAANQSSVGASEPSQPTRGIHVNPKYLRRLEPSAAENNLRGINSSARVYGQNSLGGYNDFEDQLESPSSLSSTPDGFTRRSNDGANPSNQAFNYGMGRATSRDDEHMEWRRKENLGQGNDHERPRALIDAYGVDTSKHVTINKPIRDMNGMHSKMVTPWQNTEEEEFDWEDMSPTLDRSRAGEFLRSSVPALGSVRARPRVGNTSDFHLDSDIKNGVSHQLRENWSLSQNYPHTSNRVDTRAGKDLKVLASSVGLVSSNSEFGAPPFDSIQDVNSRFGRALPDGTWPHLSARGPNSLPVPSAHLHHLANPGNAMSNRLQGKPLYRPENQVSQSHLNDMTQQNQMLVNYLPSSSAMAPRPMQSLLTHVSHGYPPHGSTIRPSLSIQGGEAMHPLSSGVLSQIGASNQPPGGAFSGLIGSLMAQGLISLNNQPAGQGPLGLEFDADMLKIRNESAISALYGDLPRQCTTCGLRFKCQEEHSKHMDWHVTKNRMSKNHKQNPSRKWFVSASMWLSGAEALGAEAVPGFLPTEPTTEKKDDEDMAVPADEDQTSCALCGEPFEDFYSDETEEWMYKGAVYMNAPEESTTDMDKSQLGPIVHAKCRPESNGGDMEEGSQRKKMRS
In the case of B5, in assay [3], the binding result was “binds”.

For the origin of these results see paper PMC12591160, “Polyadenylation Complex CFII Recognizes Downstream Cis‐element for Pre‐mRNA Polyadenylation Through Interaction with an RNA‐Binding Protein in Arabidopsis”.
